Assay results from patent publication US8076367B2, “Benzimidazolylidene propane-1,3-dione derivative or salt thereof” (Astellas Pharma Inc., priority 2004, dated 2011).

experiment: Measurement of blood concentration of a compound by ex vivo binding assay; parameters: species or system Wistar male rat; settings: B in μM divided by A in nM
Procedure: Each compound to be tested was dissolved or suspended in 0.5% methyl cellulose (MC) solution and was orally administered to Wistar male rat of 9 weeks of age (SLC Japan) at a dose of 10 mg/kg. Blood sample was collected after 2 hours of the administration to obtain serum.
Each serum sample was mixed with the same volume of methanol to remove protein and optionally diluted with an assay buffer, and then the ^125I-D-Trp^6-LHRH binding inhibition ratio was measured in the same manner as in Test Example 1. Using a separately prepared calibration curve on the concentration-binding inhibition of compounds to be tested, blood concentration of each compound (μM) was calculated from the binding inhibition ratio.

For `O=C(C(C(=O)c1cccc(C(O)CO)c1)=C1Nc2ccc(F)cc2N1)c1cc(F)cc(F)c1` (stereo not drawn) [Ex 2-5], which “(B)/(A) ratio of blood compound concentration (B) to GnRH receptor antagonism (A)” value (from here on “(B)/(A) ratio”) is on record?
Its value is 8.2.

With `O=C(C(C(=O)c1cccc(C(O)CO)c1)=C1Nc2ccccc2N1)c1cccc(F)c1` (stereo not drawn) [Ex 2-7] as the compound, how does the “(B)/(A) ratio” value read?
The value was 8.7.

For `O=C(C(C(=O)c1cccc([C@@H](O)CO)c1F)=C1Nc2ccccc2N1)c1cc(F)cc(F)c1` [Ex 4-33], which “(B)/(A) ratio” value is on record?
Its value is 13.3.

Which “(B)/(A) ratio” value does the source give for `CCCCc1c(C(=O)C(C(=O)c2cccc(F)c2)=C2Nc3ccccc3N2)cccc1[C@@H](O)CO` [Ex 4-8] here?
Its value is 22.1.

For `O=C(C(C(=O)c1cccc(C(O)CO)c1)=C1Nc2ccccc2N1)c1cccc(Cl)c1` (stereo not drawn) [Ex 2-50], which “(B)/(A) ratio” value is on record?
Its value is 7.3.

With `O=C(C(C(=O)c1cccc([C@@H](O)CO)c1Cl)=C1Nc2ccccc2N1)c1cccc(Cl)c1` [Ex 4-15] as the compound, how does the “(B)/(A) ratio” value read?
Its value is 19.0.

Which “(B)/(A) ratio” value does the source give for `O=C(C(C(=O)c1cccc([C@@H](O)CO)c1Cl)=C1Nc2ccccc2N1)c1cc(F)cc(F)c1` [Ex 4-30] here?
The value was 15.0.

Which “(B)/(A) ratio” value does the source give for `Cc1cccc(C(=O)C(C(=O)c2cccc([C@@H](O)CO)c2C)=C2Nc3ccccc3N2)c1` [Ex 4-25] here?
Its value is 9.9.

With `Cc1c(C(=O)C(C(=O)c2ccccc2F)=C2Nc3ccccc3N2)cccc1[C@@H](O)CO` [Ex 4-29] as the compound, how does the “(B)/(A) ratio” value read?
Its value is 33.9.

Which “(B)/(A) ratio” value does the source give for `O=C(C(C(=O)c1cccc([C@@H](O)CO)c1F)=C1Nc2ccccc2N1)c1cccc(F)c1` [Ex 4-4] here?
The value was 10.4.

With `O=C(C(C(=O)c1cc(F)cc(F)c1F)=C1Nc2ccccc2N1)c1cccc(C(O)CO)c1` (stereo not drawn) [Ex 2-48] as the compound, how does the “(B)/(A) ratio” value read?
Its value is 9.8.

For `O=C(C(C(=O)c1cccc([C@@H](O)CO)c1)=C1Nc2ccccc2N1)c1cccc(F)c1` [Ex 4-1, 2-(1,3-dihydro-2H-benzimidazol-2-ylidene)-1-{3-[(1R)-1,2-dihydroxyethyl]phenyl}-3-(3-fluorophenyl)propane-1,3-dione], which “(B)/(A) ratio” value is on record?
Its value is 14.6.

Which “(B)/(A) ratio” value does the source give for `Cc1c(C(=O)C(C(=O)c2cc(F)cc(F)c2)=C2Nc3ccccc3N2)cccc1[C@@H](O)CO` [Ex 4-5] here?
Its value is 31.2.

Which “(B)/(A) ratio” value does the source give for `O=C(C(C(=O)c1cc(F)c(F)c(F)c1)=C1Nc2ccccc2N1)c1cccc(C(O)CO)c1` (stereo not drawn) [Ex 2-4] here?
Its value is 7.7.

With `O=C(C(C(=O)c1cccc(C(O)CO)c1)=C1Nc2ccccc2N1)c1cc(F)cc(Cl)c1` (stereo not drawn) [Ex 2-3] as the compound, how does the “(B)/(A) ratio” value read?
Its value is 8.7.

Which “(B)/(A) ratio” value does the source give for `O=C(C(C(=O)c1cccc([C@@H](O)CO)c1Cl)=C1Nc2ccccc2N1)c1cccc(F)c1` [Ex 4-21] here?
The value was 9.0.

Which “(B)/(A) ratio” value does the source give for `O=C(C(C(=O)c1cccc(C(O)CO)c1)=C1Nc2cc(F)c(Cl)cc2N1)c1cc(F)cc(F)c1` (stereo not drawn) [Ex 2-12] here?
The value was 6.1.

Which “(B)/(A) ratio” value does the source give for `O=C(C(C(=O)c1cc(C(O)CO)ccc1F)=C1Nc2ccccc2N1)c1cc(F)cc(F)c1` (stereo not drawn) [Ex 2-20] here?
The value was 5.7.

With `Cc1c(C(=O)C(C(=O)c2cccc(Cl)c2)=C2Nc3ccccc3N2)cccc1[C@@H](O)CO` [Ex 4-23] as the compound, how does the “(B)/(A) ratio” value read?
Its value is 6.2.

With `O=C(C(C(=O)c1ccc(F)c([C@@H](O)CO)c1)=C1Nc2ccccc2N1)c1cc(F)cc(F)c1` [Ex 4-22] as the compound, how does the “(B)/(A) ratio” value read?
The value was 16.7.

For `Cc1cccc(C(=O)C(C(=O)c2cccc([C@@H](O)CO)c2Cl)=C2Nc3ccccc3N2)c1` [Ex 4-32], which “(B)/(A) ratio” value is on record?
The value was 5.6.
